Measured data: PubChem BioAssay AID1259254 (NCATS, 2017)

Assay: 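Finding genes that stop cells copying their DNA twice in one cycle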 (primary screen)
Cells: human HCT116 colorectal cancer cells
Knock-down reagent: single siRNA against human genes
Timing: 3 days
Measurement: 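Nuclei stained with Hoechst and imaged; cell-cycle phase assigned by DNA content; G2 share scaled per plate, non-targeting siRNA 0%, GMNN siRNA 100%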
Reading the numbers: G2 robust z-score and G2 cells, % of GMNN control: higher = more G2 cells, more excess DNA replication
Rule for the call: 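An siRNA counts as active if its G2 robust z-score lies at least 5 MADs above the screen median; here such calls match roughly 38% of GMNN control or more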
This is one part, drawn at random, of about 59,000 reagents tested. About 1,550 of them (2.6%) count as active. 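G2 share is only a proxy for re-replication; each gene was hit by three separate siRNAs, and active genes were retested.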 Entries without a mark were called inactive. The numbers tell different reagents against one gene apart. Further read-outs or replicates are left out here. Not stated in the record: the amount of reagent.

PPP1R12A #1 | G2 robust z-score = 1.42; G2 cells, % of GMNN control = 12.9
PPP1R12A #2 | G2 robust z-score = 2.55; G2 cells, % of GMNN control = 20.9
PPP1R12A #3 | G2 robust z-score = 4.62; G2 cells, % of GMNN control = 35.5
LSMEM2 #1 | G2 robust z-score = 0.154; G2 cells, % of GMNN control = 4.05
LSMEM2 #2 | G2 robust z-score = 0.236; G2 cells, % of GMNN control = 4.63
LSMEM2 #3 | G2 robust z-score = -0.311; G2 cells, % of GMNN control = 0.782
FABP12 #1 | G2 robust z-score = 4.64; G2 cells, % of GMNN control = 35.6
FABP12 #2 | G2 robust z-score = 0.501; G2 cells, % of GMNN control = 6.49
FABP12 #3 | G2 robust z-score = -1.1; G2 cells, % of GMNN control = -4.77
LZIC #1 | G2 robust z-score = 5.48 (active); G2 cells, % of GMNN control = 41.5
LZIC #2 | G2 robust z-score = 1.06; G2 cells, % of GMNN control = 10.4
LZIC #3 | G2 robust z-score = -0.423; G2 cells, % of GMNN control = -0.00575
IMPA2 #1 | G2 robust z-score = 0.184; G2 cells, % of GMNN control = 4.26
IMPA2 #2 | G2 robust z-score = -1.14; G2 cells, % of GMNN control = -5.04
IMPA2 #3 | G2 robust z-score = -0.562; G2 cells, % of GMNN control = -0.987
ATP2A2 #1 | G2 robust z-score = -0.148; G2 cells, % of GMNN control = 1.93
ATP2A2 #2 | G2 robust z-score = 1.73; G2 cells, % of GMNN control = 15.1
ATP2A2 #3 | G2 robust z-score = -0.463; G2 cells, % of GMNN control = -0.29
VMA22 #1 | G2 robust z-score = -0.0587; G2 cells, % of GMNN control = 2.55
VMA22 #2 | G2 robust z-score = 5.13 (active); G2 cells, % of GMNN control = 39
VMA22 #3 | G2 robust z-score = -1.07; G2 cells, % of GMNN control = -4.59
CENPU #1 | G2 robust z-score = 3; G2 cells, % of GMNN control = 24.1
CENPU #2 | G2 robust z-score = -0.255; G2 cells, % of GMNN control = 1.17
CENPU #3 | G2 robust z-score = -1.15; G2 cells, % of GMNN control = -5.15
